B1: Cystatin-M (protein, UniProt Q15828 29-149, looked up)
Cystatin-M: RPQERMVGELRDLSPDDPQVQKAAQAAVASYNMGSNSIYYFRDTHIIKAQSQLVAGIKYFLTMEMGSTDCRKTRVTGDHVDLTTCPLAAGAQQEKLRCDFEVLVVPWQNSSQLLKHNCVQM
B2: Cytoskeleton-associated protein 2 (protein, UniProt Q8WWK9 1-683, looked up)
Cytoskeleton-associated …: MSTPAVPQDLQLPPSQRAQSAFKEQRRQKLKEHLLRRKTLFAYKQENEMLSSSRDQRVVTSEDQVQEGTKVLKLKTKMADKENMKRPAESKNNTVVGKHCIPLKPSNELTNSTVVIDTHKPKDSNQTPHLLLTEDDPQSQHMTLSQAFHLKNNSKKKQMTTEKQKQDANMPKKPVLGSYRGQIVQSKINSFRKPLQVKDESSAATKKLSATIPKATKPQPVNTSSVTVKSNRSSNMTATTKFVSTTSQNTQLVRPPIRSHHSNTRDTVKQGISRTSANVTIRKGPHEKELLQSKTALSSVKTSSSQGIIRNKTLSRSIASEVIARPASLSNDKLMEKSEPVDQRRHTAGKAIVDSRSAQPKETSEERKARLSEWKAGKGRVLKRPPNSVVTQHEPAGQNEKPVGSFWTTMAEEDEQRLFTEKVNNTFSECLNLINEGCPKEDILVTLNDLIKNIPDAKKLVKYWICLALIEPITSPIENIIAIYEKAILAGAQPIEEMRHTIVDILTMKSQEKANLGENMEKSCASKEEVKEVSIEDTGVDVDPEKLEMESKLHRNLLFQDCEKEQDNKTKDPTHDVKTPNTETRTSCLIKYNVSTTPYLQSVKKKVQFDGTNSAFKELKFLTPVRRSRRLQEKTSKLPDMLKDHYPCVSSLEQLTELGRETDAFVCRPNAALCRVYYEADTT
B3: Desmocollin-3 (protein, UniProt Q14574 136-896, looked up)
Desmocollin-3: RWAPIPCSMQENSLGPFPLFLQQVESDAAQNYTVFYSISGRGVDKEPLNLFYIERDTGNLFCTRPVDREEYDVFDLIAYASTADGYSADLPLPLPIRVEDENDNHPVFTEAIYNFEVLESSRPGTTVGVVCATDRDEPDTMHTRLKYSILQQTPRSPGLFSVHPSTGVITTVSHYLDREVVDKYSLIMKVQDMDGQFFGLIGTSTCIITVTDSNDNAPTFRQNAYEAFVEENAFNVEILRIPIEDKDLINTANWRVNFTILKGNENGHFKISTDKETNEGVLSVVKPLNYEENRQVNLEIGVNNEAPFARDIPRVTALNRALVTVHVRDLDEGPECTPAAQYVRIKENLAVGSKINGYKAYDPENRNGNGLRYKKLHDPKGWITIDEISGSIITSKILDREVETPKNELYNITVLAIDKDDRSCTGTLAVNIEDVNDNPPEILQEYVVICKPKMGYTDILAVDPDEPVHGAPFYFSLPNTSPEISRLWSLTKVNDTAARLSYQKNAGFQEYTIPITVKDRAGQAATKLLRVNLCECTHPTQCRATSRSTGVILGKWAILAILLGIALLFSVLLTLVCGVFGATKGKRFPEDLAQQNLIISNTEAPGDDRVCSANGFMTQTTNNSSQGFCGTMGSGMKNGGQETIEMMKGGNQTLESCRGAGHHHTLDSCRGGHTEVDNCRYTYSEWHSFTQPRLGEKLHRCNQNEDRMPSQDYVLTYNYEGRGSPAGSVGCCSEKQEEDGLDFLNNLEPKFITLAEACTKR
B4: Desmoglein-1 (protein, UniProt Q02413 50-1049, looked up)
Desmoglein-1: EWIKFAAACREGEDNSKRNPIAKIHSDCAANQQVTYRISGVGIDQPPYGIFVINQKTGEINITSIVDREVTPFFIIYCRALNSMGQDLERPLELRVRVLDINDNPPVFSMATFAGQIEENSNANTLVMILNATDADEPNNLNSKIAFKIIRQEPSDSPMFIINRNTGEIRTMNNFLDREQYGQYALAVRGSDRDGGADGMSAECECNIKILDVNDNIPYMEQSSYTIEIQENTLNSNLLEIRVIDLDEEFSANWMAVIFFISGNEGNWFEIEMNERTNVGILKVVKPLDYEAMQSLQLSIGVRNKAEFHHSIMSQYKLKASAISVTVLNVIEGPVFRPGSKTYVVTGNMGSNDKVGDFVATDLDTGRPSTTVRYVMGNNPADLLAVDSRTGKLTLKNKVTKEQYNMLGGKYQGTILSIDDNLQRTCTGTININIQSFGNDDRTNTEPNTKITTNTGRQESTSSTNYDTSTTSTDSSQVYSSEPGNGAKDLLSDNVHFGPAGIGLLIMGFLVLGLVPFLMICCDCGGAPRSAAGFEPVPECSDGAIHSWAVEGPQPEPRDITTVIPQIPPDNANIIECIDNSGVYTNEYGGREMQDLGGGERMTGFELTEGVKTSGMPEICQEYSGTLRRNSMRECREGGLNMNFMESYFCQKAYAYADEDEGRPSNDCLLIYDIEGVGSPAGSVGCCSFIGEDLDDSFLDTLGPKFKKLADISLGKESYPDLDPSWPPQSTEPVCLPQETEPVVSGHPPISPHFGTTTVISESTYPSGPGVLHPKPILDPLGYGNVTVTESYTTSDTLKPSVHVHDNRPASNVVVTERVVGPISGADLHGMLEMPDLRDGSNVIVTERVIAPSSSLPTSLTIHHPRESSNVVVTERVIQPTSGMIGSLSMHPELANAHNVIVTERVVSGAGVTGISGTTGISGGIGSSGLVGTSMGAGSGALSGAGISGGGIGLSSLGGTASIGHMRSSSDHHFNQTIGSASPSTARSRITKYSTVQYSK
B5: Diablo homolog, mitochondrial (protein, UniProt Q9NR28 22-239, looked up)
Diablo IAP-binding …: LCVPVVANFKKRCFSELIRPWHKTVTIGFGVTLCAVPIAQKSEPHSLSSEALMRRAVSLVTDSTSTFLSQTTYALIEAITEYTKAVYTLTSLYRQYTSLLGKMNSEEEDEVWQVIIGARAEMTSKHQEYLKLETTWMTAVGLSEMAAEAAYQTGADQASITARNHIQLVKLQVEEVHQLSRKAETKLAEAQIEELRQKTQEEGEERAESEQEAYLRED
B6: Disintegrin and metalloproteinase domain-containing protein 9 (protein, UniProt Q13443 29-819, looked up)
Disintegrin and …: AARPGFQQTSHLSSYEIITPWRLTRERREAPRPYSKQVSYVIQAEGKEHIIHLERNKDLLPEDFVVYTYNKEGTLITDHPNIQNHCHYRGYVEGVHNSSIALSDCFGLRGLLHLENASYGIEPLQNSSHFEHIIYRMDDVYKEPLKCGVSNKDIEKETAKDEEEEPPSMTQLLRRRRAVLPQTRYVELFIVVDKERYDMMGRNQTAVREEMILLANYLDSMYIMLNIRIVLVGLEIWTNGNLINIVGGAGDVLGNFVQWREKFLITRRRHDSAQLVLKKGFGGTAGMAFVGTVCSRSHAGGINVFGQITVETFASIVAHELGHNLGMNHDDGRDCSCGAKSCIMNSGASGSRNFSSCSAEDFEKLTLNKGGNCLLNIPKPDEAYSAPSCGNKLVDAGEECDCGTPKECELDPCCEGSTCKLKSFAECAYGDCCKDCRFLPGGTLCRGKTSECDVPEYCNGSSQFCQPDVFIQNGYPCQNNKAYCYNGMCQYYDAQCQVIFGSKAKAAPKDCFIEVNSKGDRFGNCGFSGNEYKKCATGNALCGKLQCENVQEIPVFGIVPAIIQTPSRGTKCWGVDFQLGSDVPDPGMVNEGTKCGAGKICRNFQCVDASVLNYDCDVQKKCHGHGVCNSNKNCHCENGWAPPNCETKGYGGSVDSGPTYNEMNTALRDGLLVFFFLIVPLIVCAIFIFIKRDQLWRSYFRKKRSQTYESDGKNQANPSRQPGSVPRHVSPVTPPREVPIYANRFAVPTYAAKQPQQFPSRPPPPQPKVSSQGNLIPARPAPAPPLYSSLT
B7: DNA topoisomerase 1 (protein, UniProt P11387 2-765, looked up)
DNA topoisomerase 1: SGDHLHNDSQIEADFRLNDSHKHKDKHKDREHRHKEHKKEKDREKSKHSNSEHKDSEKKHKEKEKTKHKDGSSEKHKDKHKDRDKEKRKEEKVRASGDAKIKKEKENGFSSPPQIKDEPEDDGYFVPPKEDIKPLKRPRDEDDADYKPKKIKTEDTKKEKKRKLEEEEDGKLKKPKNKDKDKKVPEPDNKKKKPKKEEEQKWKWWEEERYPEGIKWKFLEHKGPVFAPPYEPLPENVKFYYDGKVMKLSPKAEEVATFFAKMLDHEYTTKEIFRKNFFKDWRKEMTNEEKNIITNLSKCDFTQMSQYFKAQTEARKQMSKEEKLKIKEENEKLLKEYGFCIMDNHKERIANFKIEPPGLFRGRGNHPKMGMLKRRIMPEDIIINCSKDAKVPSPPPGHKWKEVRHDNKVTWLVSWTENIQGSIKYIMLNPSSRIKGEKDWQKYETARRLKKCVDKIRNQYREDWKSKEMKVRQRAVALYFIDKLALRAGNEKEEGETADTVGCCSLRVEHINLHPELDGQEYVVEFDFLGKDSIRYYNKVPVEKRVFKNLQLFMENKQPEDDLFDRLNTGILNKHLQDLMEGLTAKVFRTYNASITLQQQLKELTAPDENIPAKILSYNRANRAVAILCNHQRAPPKTFEKSMMNLQTKIDAKKEQLADARRDLKSAKADAKVMKDAKTKKVVESKKKAVQRLEEQLMKLEVQATDREENKQIALGTSKLNYLDPRITVAWCKKWGVPIEKIYNKTQREKFAWAIDMADEDYEF
B8: Dual specificity mitogen-activated protein kinase kinase 4 (protein, UniProt P45985 2-399, looked up)
Dual specificity …: AAPSPSGGGGSGGGSGSGTPGPVGSPAPGHPAVSSMQGKRKALKLNFANPPFKSTARFTLNPNPTGVQNPHIERLRTHSIESSGKLKISPEQHWDFTAEDLKDLGEIGRGAYGSVNKMVHKPSGQIMAVKRIRSTVDEKEQKQLLMDLDVVMRSSDCPYIVQFYGALFREGDCWICMELMSTSFDKFYKYVYSVLDDVIPEEILGKITLATVKALNHLKENLKIIHRDIKPSNILLDRSGNIKLCDFGISGQLVDSIAKTRDAGCRPYMAPERIDPSASRQGYDVRSDVWSLGITLYELATGRFPYPKWNSVFDQLTQVVKGDPPQLSNSEEREFSPSFINFVNLCLTKDESKRPKYKELLKHPFILMYEERAVEVACYVCKILDQMPATPSSPMYVD

Test system: proteins in oral lavage
Test: Abundance of proteins in human oral lavage (SomaLogic), TABLE 1
Type: in vivo
Conditions: for Means (Original Scale) High bleeder BL / Means (Original Scale) High bleeder W4 / Means (Original Scale) Low bleeder BL: abundance in oral lavage; for Means (Original Scale) High bleeder BL: high bleeders (gingivitis); for Means (Original Scale) High bleeder BL / Means (Original Scale) Low bleeder BL: baseline; for Means (Original Scale) High bleeder W4 / Fold Change High bleeder W4 vs High bleeder BL: high bleeders; for Means (Original Scale) High bleeder W4: week 4 of investigative products; for Means (Original Scale) Low bleeder BL: low bleeders (healthy); for Fold Change High bleeder BL vs Low bleeder BL / Fold Change High bleeder W4 vs High bleeder BL: oral lavage; for Fold Change High bleeder BL vs Low bleeder BL: high bleeders vs low bleeders at baseline; for Fold Change High bleeder W4 vs High bleeder BL: week 4 of investigative products vs baseline

Row | Molecule | Means (Original Scale) High bleeder BL | Means (Original Scale) High bleeder W4 | Means (Original Scale) Low bleeder BL | Fold Change High bleeder BL vs Low bleeder BL | Fold Change High bleeder W4 vs High bleeder BL
1 | B1 | 17308 | 8283 | 6730 | 2.72 | 0.50
2 | B2 | 5329 | 3399 | 1303 | 3.90 | 0.68
3 | B3 | 752 | 317 | 201 | 2.67 | 0.53
4 | B4 | 12244 | 4796 | 3634 | 3.45 | 0.44
5 | B5 | 1487 | 827 | 366 | 3.96 | 0.60
6 | B6 | 768 | 530 | 113 | 6.05 | 0.74
7 | B7 | 399 | 193 | 79 | 4.09 | 0.59
8 | B8 | 244 | 158 | 100 | 2.18 | 0.70
